From ChEMBL document CHEMBL3988442, “University of Dundee, Small-Polar-MMV Screening Library” (2021).

Amino acid sequences for entries named in this document (tags omitted). Residues count along the entry.
UniProt I6X8D2, whole entry: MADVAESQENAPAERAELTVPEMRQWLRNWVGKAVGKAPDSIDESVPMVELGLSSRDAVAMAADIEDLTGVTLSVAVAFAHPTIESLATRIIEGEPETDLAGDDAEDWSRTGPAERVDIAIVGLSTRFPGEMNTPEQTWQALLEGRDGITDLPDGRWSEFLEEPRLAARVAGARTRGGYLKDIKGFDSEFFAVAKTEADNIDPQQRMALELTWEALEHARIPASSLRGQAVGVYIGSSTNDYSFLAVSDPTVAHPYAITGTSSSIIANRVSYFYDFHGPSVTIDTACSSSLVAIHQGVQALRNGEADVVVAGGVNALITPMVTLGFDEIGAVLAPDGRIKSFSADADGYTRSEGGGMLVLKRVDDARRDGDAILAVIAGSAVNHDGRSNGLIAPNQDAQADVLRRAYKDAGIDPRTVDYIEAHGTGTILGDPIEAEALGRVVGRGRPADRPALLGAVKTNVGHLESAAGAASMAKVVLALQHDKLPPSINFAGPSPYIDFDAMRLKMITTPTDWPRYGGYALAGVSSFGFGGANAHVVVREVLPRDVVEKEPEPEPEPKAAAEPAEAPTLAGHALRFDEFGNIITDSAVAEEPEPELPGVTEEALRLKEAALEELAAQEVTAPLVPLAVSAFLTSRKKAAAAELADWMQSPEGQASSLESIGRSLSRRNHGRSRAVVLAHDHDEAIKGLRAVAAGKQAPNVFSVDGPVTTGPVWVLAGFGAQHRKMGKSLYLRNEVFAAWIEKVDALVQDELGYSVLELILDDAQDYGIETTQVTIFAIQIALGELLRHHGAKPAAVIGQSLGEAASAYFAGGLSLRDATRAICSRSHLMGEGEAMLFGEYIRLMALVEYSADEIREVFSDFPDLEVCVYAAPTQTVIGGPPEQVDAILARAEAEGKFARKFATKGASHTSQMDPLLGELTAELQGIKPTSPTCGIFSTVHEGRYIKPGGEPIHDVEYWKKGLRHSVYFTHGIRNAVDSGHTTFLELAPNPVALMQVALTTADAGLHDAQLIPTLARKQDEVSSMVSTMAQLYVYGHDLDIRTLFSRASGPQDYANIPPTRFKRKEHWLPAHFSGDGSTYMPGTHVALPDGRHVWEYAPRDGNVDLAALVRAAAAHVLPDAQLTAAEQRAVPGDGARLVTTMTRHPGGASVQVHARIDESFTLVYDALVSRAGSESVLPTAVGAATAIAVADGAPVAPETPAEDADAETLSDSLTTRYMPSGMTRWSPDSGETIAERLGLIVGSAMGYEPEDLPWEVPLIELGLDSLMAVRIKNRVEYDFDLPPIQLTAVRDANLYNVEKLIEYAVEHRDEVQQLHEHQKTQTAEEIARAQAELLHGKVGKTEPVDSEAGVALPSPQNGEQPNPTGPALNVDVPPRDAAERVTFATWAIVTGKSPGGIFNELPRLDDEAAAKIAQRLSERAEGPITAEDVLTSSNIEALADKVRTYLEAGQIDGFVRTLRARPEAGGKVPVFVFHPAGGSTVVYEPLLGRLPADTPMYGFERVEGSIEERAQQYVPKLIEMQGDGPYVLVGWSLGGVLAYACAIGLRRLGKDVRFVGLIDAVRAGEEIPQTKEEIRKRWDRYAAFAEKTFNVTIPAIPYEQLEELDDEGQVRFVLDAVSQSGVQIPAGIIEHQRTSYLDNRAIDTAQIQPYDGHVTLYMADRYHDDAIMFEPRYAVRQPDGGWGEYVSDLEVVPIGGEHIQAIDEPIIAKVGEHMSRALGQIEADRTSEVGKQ
UniProt P9WNZ1, whole entry: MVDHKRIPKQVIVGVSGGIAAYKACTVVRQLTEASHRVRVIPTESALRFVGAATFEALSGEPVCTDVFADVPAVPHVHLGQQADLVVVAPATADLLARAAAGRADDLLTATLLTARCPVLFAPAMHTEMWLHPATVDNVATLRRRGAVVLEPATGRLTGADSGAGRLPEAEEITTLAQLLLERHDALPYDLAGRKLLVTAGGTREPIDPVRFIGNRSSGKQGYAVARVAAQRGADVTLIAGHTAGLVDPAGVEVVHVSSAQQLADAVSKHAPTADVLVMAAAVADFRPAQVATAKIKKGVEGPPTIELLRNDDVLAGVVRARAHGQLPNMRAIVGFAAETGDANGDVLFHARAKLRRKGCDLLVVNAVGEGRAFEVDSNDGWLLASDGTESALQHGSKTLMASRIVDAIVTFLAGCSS
UniProt Q8IDJ8, 1-583: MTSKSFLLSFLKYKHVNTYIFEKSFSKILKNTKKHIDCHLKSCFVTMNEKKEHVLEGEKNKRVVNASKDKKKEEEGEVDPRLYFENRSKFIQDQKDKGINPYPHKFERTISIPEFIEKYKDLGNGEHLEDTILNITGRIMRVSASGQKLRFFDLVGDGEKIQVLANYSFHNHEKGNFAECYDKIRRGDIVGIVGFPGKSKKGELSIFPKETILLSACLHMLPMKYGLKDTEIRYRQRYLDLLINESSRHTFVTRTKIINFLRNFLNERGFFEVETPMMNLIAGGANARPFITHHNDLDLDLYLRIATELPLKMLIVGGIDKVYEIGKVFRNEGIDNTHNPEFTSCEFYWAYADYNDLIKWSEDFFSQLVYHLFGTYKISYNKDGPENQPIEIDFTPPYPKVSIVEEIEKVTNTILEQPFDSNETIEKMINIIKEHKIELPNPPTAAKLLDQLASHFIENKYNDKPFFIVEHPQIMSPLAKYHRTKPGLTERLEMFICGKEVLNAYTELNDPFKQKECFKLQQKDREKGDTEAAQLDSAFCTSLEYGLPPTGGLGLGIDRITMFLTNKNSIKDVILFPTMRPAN
UniProt Q4DA54, 1-478: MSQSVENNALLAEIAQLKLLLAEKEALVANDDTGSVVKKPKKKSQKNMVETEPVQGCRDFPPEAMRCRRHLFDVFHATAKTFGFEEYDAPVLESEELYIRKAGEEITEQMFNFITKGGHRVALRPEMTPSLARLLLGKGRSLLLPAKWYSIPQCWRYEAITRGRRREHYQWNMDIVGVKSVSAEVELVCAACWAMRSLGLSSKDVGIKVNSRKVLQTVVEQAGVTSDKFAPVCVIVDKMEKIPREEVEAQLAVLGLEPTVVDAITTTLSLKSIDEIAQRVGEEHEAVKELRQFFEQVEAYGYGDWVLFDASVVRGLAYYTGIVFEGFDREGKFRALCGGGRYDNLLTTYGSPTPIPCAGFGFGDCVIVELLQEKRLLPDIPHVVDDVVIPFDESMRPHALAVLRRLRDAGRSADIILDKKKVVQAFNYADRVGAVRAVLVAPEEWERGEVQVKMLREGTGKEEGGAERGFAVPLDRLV

A: 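Polyketide synthase Pks13, Mycobacterium tuberculosis (UniProt I6X8D2). Enzyme assay of the thioesterase domain of polyketide synthase 13; the read-out is not stated. Concentration: 30 µM. Higher reads as stronger inhibition (inferred from which compounds were picked for retests). About 67,000 compounds were tested under these conditions; 0.46% (about 300) showed 50% or more at least once.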
B: 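Coenzyme A biosynthesis protein CoaBC, Mycobacterium tuberculosis (UniProt P9WNZ1). Enzyme assay of CoaBC with a phosphate dye (Biomol Green) read at 650 nm. Tested at 30 µM. Direction is inferred from only a few compounds that gave an IC50; most scored high, so higher reads as stronger inhibition. Most strong results did not repeat in a second test. About 67,000 compounds were tested under these conditions; 0.06% (about 40) showed 50% or more at least once.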
C: 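Enzyme assay of the cytosolic lysyl-tRNA synthetase in 384-well plates, read by luminescence. Target: Lysine-tRNA ligase, Plasmodium falciparum 3D7 (UniProt Q8IDJ8). Tested at 30 µM. Higher reads as stronger inhibition, judged from the few compounds that gave an IC50. About 69,000 compounds were tested under these conditions; 0.071% (about 49) showed 50% or more at least once.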
D: 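Enzyme assay of histidyl-tRNA synthetase; the read-out is not stated. Target: Histidine-tRNA ligase, Trypanosoma cruzi CL Brener (UniProt Q4DA54). Compounds at 30 µM. Direction is inferred from retests: higher values go with stronger inhibition. Size under these conditions: about 69,000 compounds, about 31 of them at 50% or above in at least one test.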

The filed quantity is “Percent Effect” (%).
How 0% and 100% were set is not recorded. Most values in the screen are low, and negative values occur.
Compounds were drawn at random from those tested, without regard to their results.

CC(CNC(=O)NCc1ccc2c(c1)OCO2)CC1(C)OCCO1 (stereo not shown) read A: -16.99%; C: 3.422%; D: 3.185%.
CC(C)Oc1cccc(CNC(=O)NC(C)(C(=O)O)c2ccco2)c1 (stereo not shown) read A: -4.275%; B: 6.177%; C: 9.168%; D: 3.03%.
CCc1nccn1C1CCCN(C(=O)c2ccc(C(=O)NC)nc2)C1 (stereo not shown) read A: -6.063%; B: -0.241%; C: -1.032%; D: 2.29%.
O=C(NCCc1cccc(F)c1)C1(n2cnnn2)CCCCC1 read A: -1.032%; B: 2.278%; C: 4.416%; D: 2.439%.
COCCCNC(=O)Cn1nnc(-c2cc3ccccc3o2)n1 read A: 0.9412%; B: 5.159%; C: 5.776%; D: 12.07%.
CC(Cc1c(F)cccc1F)NC(=O)Nc1cnn(CC(N)=O)c1 (stereo not shown) read A: -7.386%; B: 2.35%; C: -0.1452%; D: 1.128%.
O=C1N(Cc2ccncc2)CCC12CCCN(c1ncc(F)cn1)C2 (stereo not shown) read A: -25.73%; B: -2.683%; C: 0.1049%; D: -1.111%.
CCCc1nc(NCCOC)c2c(n1)c(C)nn2CC read A: 36.82%; B: 3.002%; C: 6.224%; D: 3.478%.
CC1CC(NS(=O)(=O)c2ccc(C(F)(F)F)nc2)C1 (stereo not shown) read A: -6.259%; B: 1.635%; C: -1.706%; D: 1.786%.
CCc1cc(CNC(=O)Nc2cc(F)ccc2N2CCCCC2)on1 read A: 31.57%; B: -3.171%; C: 6.337%; D: -2.941%.
O=C(C1CCOC1)N1CCc2ncnc(NC3CCC3)c2CC1 (stereo not shown) read B: -0.2179%; C: 4.192%; D: 4.372%.
c1cnc(Nc2cc(CCC3CCNCC3)ccn2)cn1 read A: -0.4064%; B: 1.214%; C: 1.254%; D: 7.28%.
CCOC(=O)CNC(=O)N1CCc2onc(-c3ccc(Cl)cc3)c2C1 read A: -1.098%; B: -1.737%; C: -1.798%; D: 5.202%.
Cc1csc2c(N3CCNC(C(=O)NCc4cccnc4)C3)ncnc12 (stereo not shown) read A: -0.05688%; B: 4.545%; C: -3.91%; D: -0.8%.
O=C(c1cccnc1)N1C[C@@H]2CC[C@H](C1)N(Cc1cc(F)ccc1F)C2 read A: -8.918%; B: 5.33%; C: 2.933%; D: 4.132%.
CC(C(=O)NC(C)(C)C)S(=O)(=O)Cc1noc(C(C)(C)C)n1 (stereo not shown) read A: -16.07%; B: 10.77%; C: 6.429%; D: 8.247%.
O=C(NC[C@]12COC[C@H]1CN(Cc1ccco1)C2)c1ccccc1 read A: 4.286%; B: 2.757%; C: 1.635%; D: 2.439%.
O=C(COCC1CC[C@H]2[C@H](CCN2c2ncccn2)O1)N1CCCC1 (stereo partly shown) read A: 9.906%; B: -1.356%; C: 3.884%; D: 4.386%.
CC(C)CN(CCc1ccccc1)Cc1nc2c(cnn2C)c(=O)[nH]1 read A: -2.524%; B: 0.6211%; C: 0.2617%; D: 6.59%.
CN(C)CCn1ccnc1C1CCCN(C(=O)CCc2cccnc2)C1 (stereo not shown) read A: -0.6679%; B: 2.372%; C: 6.158%; D: 6.122%.
Cc1c(C(=O)N(CCN(C)C)Cc2ccccn2)oc2ccccc12 read A: 0.9432%; B: 0.7371%; C: 2.707%; D: 7.407%.
O=C(O)c1ccc(N2CCC(Oc3cccc(F)c3)CC2)nc1 read B: 3.226%; C: 4.519%; D: 8.671%.
O=C(NCc1cn2cccnc2n1)C1CC(=O)N(Cc2ccccn2)C1 (stereo not shown) read A: -2.739%; B: 3.106%; C: 0.3118%; D: 1.932%.